Data published in the supplement of paper PMC4604168 (melanoma cell lines).
The other results are listed elsewhere or left out. Repeats are few or missing, and single values can be far off.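 Imaging used 1,536-well plates; nuclei positive for cleaved PARP by antibody were divided by total DNA-stained nuclei to yield the apoptosis fraction. Doses for screening kept most cells viable, and cell lines differ markedly in resting and induced cleaved-PARP levels.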

Assays:
Assay in all cases: cleaved PARP positive nuclei fraction relative to DMSO control; melanoma cells; higher = more apoptosis
Details in all cases: library dose: low library concentration; 72 h
WM115 = tested on: WM115
WM1716 = tested on: WM1716
WM1745 = tested on: WM1745
WM3526 = tested on: WM3526
WM3619 = tested on: WM3619
WM451Lu = tested on: WM451Lu

Row | Compound | cleaved PARP positive nuclei fraction (WM115) | cleaved PARP positive nuclei fraction (WM1716) | cleaved PARP positive nuclei fraction (WM1745) | cleaved PARP positive nuclei fraction (WM3526) | cleaved PARP positive nuclei fraction (WM3619) | cleaved PARP positive nuclei fraction (WM451Lu)
1 | Cn1cc(C2=C(c3cn(C4CCN(Cc5ccccn5)CC4)c4ccccc34)C(=O)NC2=O)c2ccccc21 [Enzastaurin] + Nc1ccn([C@@H]2O[C@H](CO)[C@@H](O)C2(F)F)c(=O)n1 [gemcitabine] (first compound 0.8 µM, partner dose 0.0004 µM) | 152% | 57.1% | 237% | 102% | 99.3% | 131%
2 | C[C@]12O[C@H](C[C@]1(O)CO)n1c3ccccc3c3c4c(c5c6ccccc6n2c5c31)CNC4=O [Lestaurtinib] + CO[C@H]1C[C@@H]2CC[C@@H](C)[C@@](O)(O2)C(=O)C(=O)N2CCCC[C@H]2C(=O)O[C@H]([C@H](C)C[C@@H]2CC[C@@H](OCCO)[C@H](OC)C2)CC(=O)[C@H](C)/C=C(\C)[C@@H](O)[C@@H](OC)C(=O)[C@H](C)C[C@H](C)/C=C/C=C/C=C/1C [everolimus] (first compound 0.004 µM, partner dose 0.02 µM) | 117% | 55.1% | 104% | 237% | 97.4% | 97.2%
3 | CC(=O)O[C@@]12CO[C@@H]1C[C@H](O)[C@@]1(C)C(=O)[C@H](O)C3=C(C)[C@@H](OC(=O)[C@H](O)[C@@H](NC(=O)OC(C)(C)C)c4ccccc4)C[C@@](O)([C@@H](OC(=O)c4ccccc4)[C@H]21)C3(C)C [Docetaxel] + C[As](C)SC[C@H](NC(=O)CC[C@H](N)C(=O)O)C(=O)NCC(=O)O [Darinaparsin] (first compound 0.0001 µM, partner dose 0.4 µM) | 298% | 253% | 181% | 62.7% | 157% | 110%
4 | Cc1nc(Nc2ncc(C(=O)Nc3c(C)cccc3Cl)s2)cc(N2CCN(CCO)CC2)n1 [dasatanib] + C/C(O)=C(\C#N)C(=O)Nc1cc(Br)ccc1Br [LFM-A13] (first compound 0.004 µM, partner dose 2 µM) | 71% | 160% | 164% | 65.7% | 87.4% | 143%
5 | C[As](C)SC[C@H](NC(=O)CC[C@H](N)C(=O)O)C(=O)NCC(=O)O [Darinaparsin] + O=C(Oc1ccc([N+](=O)[O-])cc1)N1CCC(C(O)(c2ccc3c(c2)OCO3)c2ccc3c(c2)OCO3)CC1 [JZL184] (first compound 0.4 µM, partner dose 1 µM) | 104% | 92% | 115% | 83.2% | 81.9% | 206%
6 | CCN(CC)CCNC(=O)c1c(C)[nH]c(/C=C2\C(=O)Nc3ccc(F)cc32)c1C [sunitinib] + O=C(Oc1ccc([N+](=O)[O-])cc1)N1CCC(C(O)(c2ccc3c(c2)OCO3)c2ccc3c(c2)OCO3)CC1 [JZL184] (first compound 0.4 µM, partner dose 1 µM) | 33.5% | 125% | 125% | 155% | 84% | 44.5%
7 | Cn1cc(C2=C(c3cn(C4CCN(Cc5ccccn5)CC4)c4ccccc34)C(=O)NC2=O)c2ccccc21 [Enzastaurin] + CO[C@H]1C[C@@H]2CC[C@@H](C)[C@@](O)(O2)C(=O)C(=O)N2CCCC[C@H]2C(=O)O[C@H]([C@H](C)C[C@@H]2CC[C@@H](OCCO)[C@H](OC)C2)CC(=O)[C@H](C)/C=C(\C)[C@@H](O)[C@@H](OC)C(=O)[C@H](C)C[C@H](C)/C=C/C=C/C=C/1C [everolimus] (first compound 0.8 µM, partner dose 0.02 µM) | 90.4% | 73.3% | 105% | 60.9% | 119% | 78.5%
8 | N#CC[C@H](C1CCCC1)n1cc(-c2ncnc3[nH]ccc23)cn1 [ruxolitinib] + N.N.[Cl][Pt][Cl] [cisplatin] (first compound 1 µM, partner dose 1.6 µM) | 174% | 39.8% | 106% | 359% | 88.3% | 62.9%
9 | C[C@]12O[C@H](C[C@]1(O)CO)n1c3ccccc3c3c4c(c5c6ccccc6n2c5c31)CNC4=O [Lestaurtinib] + O=c1cc(-c2cccc3c2Sc2ccccc2S3)oc(N2CCOCC2)c1 [KU55933] (first compound 0.004 µM, partner dose 1 µM) | 320% | 65.9% | 96.4% | 350% | 85.9% | 38.4%
10 | O=c1[nH]nc(Sc2ncc([N+](=O)[O-])s2)n1-c1ccc2c(c1)OCCO2 + C[C@]12O[C@H](C[C@]1(O)CO)n1c3ccccc3c3c4c(c5c6ccccc6n2c5c31)CNC4=O [Lestaurtinib] (first compound 0.2 µM, partner dose 0.004 µM) | 95.6% | 140% | 103% | 88.6% | 94.4% | 83.2%
11 | Cc1cn(-c2cc(NC(=O)c3ccc(C)c(Nc4nccc(-c5cccnc5)n4)c3)cc(C(F)(F)F)c2)cn1 [nilotinib] + O=C(Oc1ccc([N+](=O)[O-])cc1)N1CCC(C(O)(c2ccc3c(c2)OCO3)c2ccc3c(c2)OCO3)CC1 [JZL184] (first compound 0.2 µM, partner dose 1 µM) | 64.2% | 121% | 91.5% | 88.5% | 93.4% | 28.5%
12 | Cc1cc(Nc2cc(N3CCN(C)CC3)nc(Sc3ccc(NC(=O)C4CC4)cc3)n2)n[nH]1 [Tozasertib] + Cn1cc(C2=C(c3cn(C4CCN(Cc5ccccn5)CC4)c4ccccc34)C(=O)NC2=O)c2ccccc21 [Enzastaurin] (first compound 0.006 µM, partner dose 0.8 µM) | 140% | 157% | 118% | 40.5% | 105% | 45.4%
13 | N.N.[Cl][Pt][Cl] [cisplatin] + CC(C)CCN1c2nc(Nc3cc(F)c(O)c(F)c3)ncc2N(C)C(=O)C1C [BID1870] (first compound 1.6 µM, partner dose 0.2 µM) | 126% | 101% | 86% | 76.7% | 124% | 89%
14 | Cn1cc(C2=C(c3cn(C4CCN(Cc5ccccn5)CC4)c4ccccc34)C(=O)NC2=O)c2ccccc21 [Enzastaurin] + Cc1cc([N+](=O)[O-])ccc1NS(=O)(=O)c1cc(Cl)ccc1Cl [FH535] (first compound 0.8 µM, partner dose 1 µM) | 65.4% | 149% | 92.2% | 78.8% | 108% | 22.1%
15 | C[C@]12O[C@H](C[C@]1(O)CO)n1c3ccccc3c3c4c(c5c6ccccc6n2c5c31)CNC4=O [Lestaurtinib] + Cc1cc(N2CCOCC2)cc2[nH]c(-c3c(NC[C@@H](O)c4cccc(Cl)c4)cc[nH]c3=O)nc12 [BMS536924] (first compound 0.004 µM, partner dose 0.2 µM) | 70.2% | 58.3% | 109% | 186% | 67.8% | 87.4%
16 | O=C(Nc1cccc(Cl)c1)Nc1ncc(CCNc2ncnc3ccsc23)s1 + O=C(Oc1ccc([N+](=O)[O-])cc1)N1CCC(C(O)(c2ccc3c(c2)OCO3)c2ccc3c(c2)OCO3)CC1 [JZL184] (first compound 0.0008 µM, partner dose 1 µM) | 360% | 101% | 110% | 78% | 91.8% | 56.2%
17 | O=C(Nc1cc(C(F)(F)F)cc(C(F)(F)F)c1)c1cc(Cl)ccc1O + Cc1cc(SCc2sc(-c3ccc(C(F)(F)F)c(F)c3)nc2C)ccc1OCC(=O)O [GW0742] (first compound 0.016 µM, partner dose 2 µM) | 164% | 94.3% | 92.3% | 78.3% | 196% | 113%
18 | N.N.[Cl][Pt][Cl] [cisplatin] + Cn1c(Nc2ccc(C(F)(F)F)cc2)nc2cc(Oc3ccnc(-c4ncc(C(F)(F)F)[nH]4)c3)ccc21 [CHIR265] (first compound 1.6 µM, partner dose 0.08 µM) | 77.5% | 148% | 96.6% | 39.1% | 85% | 99%
19 | Cn1cc(C2=C(c3cn(C4CCN(Cc5ccccn5)CC4)c4ccccc34)C(=O)NC2=O)c2ccccc21 [Enzastaurin] + C[C@]1(O)C[C@@H](c2nc(-c3ccc4ccc(-c5ccccc5)nc4c3)c3c(N)nccn32)C1 [OSI906] (first compound 0.8 µM, partner dose 0.4 µM) | 84.4% | 96.8% | 94% | 36% | 97.1% | 41.8%
20 | Cn1sc(=O)n(Cc2ccccc2)c1=O + O=C(Oc1ccc([N+](=O)[O-])cc1)N1CCC(C(O)(c2ccc3c(c2)OCO3)c2ccc3c(c2)OCO3)CC1 [JZL184] (first compound 0.4 µM, partner dose 1 µM) | 188% | 132% | 76.6% | 79.2% | 97.7% | 117%
21 | O=C(O)[C@@H]1[O][Sb](=[O])([O][Sb]2(=[O])[O][C@H]([C@H](O)CO)[C@H](O)[C@H](C(=O)O)[O]2)[O][C@H]([C@H](O)CO)[C@@H]1O (some centres undefined) [stibogluconate] + C/C(O)=C(\C#N)C(=O)Nc1cc(Br)ccc1Br [LFM-A13] (first compound 2 µM, partner dose 2 µM) | 249% | 163% | 87.3% | 77.5% | 81.7% | 64.4%
22 | CCCCCCCCc1ccc(CCC(N)(CO)CO)cc1 [fingolimod] + N.N.[Cl][Pt][Cl] [cisplatin] (first compound 2 µM, partner dose 1.6 µM) | 118% | 42.9% | 123% | 104% | 122% | 65.5%
23 | N.N.[Cl][Pt][Cl] [cisplatin] + C=CCn1c(=O)c2cnc(Nc3ccc(N4CCN(C)CC4)cc3)nc2n1-c1cccc(C(C)(C)O)n1 [MK1775] (first compound 1.6 µM, partner dose 0.02 µM) | 124% | 70.3% | 95.5% | 59.9% | 107% | 152%
24 | Cn1cc(C2=C(c3cn(C4CCN(Cc5ccccn5)CC4)c4ccccc34)C(=O)NC2=O)c2ccccc21 [Enzastaurin] + O=C(O)[C@@H]1[O][Sb](=[O])([O][Sb]2(=[O])[O][C@H]([C@H](O)CO)[C@H](O)[C@H](C(=O)O)[O]2)[O][C@H]([C@H](O)CO)[C@@H]1O [stibogluconate] (first compound 0.8 µM, partner dose 2 µM) | 82.9% | 36.7% | 101% | 62.9% | 80.4% | 21.7%

Reprinted at random: two records from the list.
Row | Compound | cleaved PARP positive nuclei fraction (WM115) | cleaved PARP positive nuclei fraction (WM1716) | cleaved PARP positive nuclei fraction (WM1745) | cleaved PARP positive nuclei fraction (WM3526) | cleaved PARP positive nuclei fraction (WM3619) | cleaved PARP positive nuclei fraction (WM451Lu)
22 | CCCCCCCCc1ccc(CCC(N)(CO)CO)cc1 [fingolimod] + N.N.[Cl][Pt][Cl] [cisplatin] (first compound 2 µM, partner dose 1.6 µM) | 118% | 42.9% | 123% | 104% | 122% | 65.5%
2 | C[C@]12O[C@H](C[C@]1(O)CO)n1c3ccccc3c3c4c(c5c6ccccc6n2c5c31)CNC4=O [Lestaurtinib] + CO[C@H]1C[C@@H]2CC[C@@H](C)[C@@](O)(O2)C(=O)C(=O)N2CCCC[C@H]2C(=O)O[C@H]([C@H](C)C[C@@H]2CC[C@@H](OCCO)[C@H](OC)C2)CC(=O)[C@H](C)/C=C(\C)[C@@H](O)[C@@H](OC)C(=O)[C@H](C)C[C@H](C)/C=C/C=C/C=C/1C [everolimus] (first compound 0.004 µM, partner dose 0.02 µM) | 117% | 55.1% | 104% | 237% | 97.4% | 97.2%
